Assay results taken from patent US20150051246A1 (priority 2013, published 2015).

System: male C57BL/6NCrl mice
Test: Object Location Task (OLT), spatial memory, 24 h retention interval
Type: in vivo
Conditions: 3 h after T1
Text: The objective of this study was to evaluate the cognitive improvement effects of Roflumilast on spatial memory employing Object Location Task (OLT) in male C57BL/6NCrl mice. Roflumilast was compared with data of the already established PDE4 inhibitor Rolipram in the same model.
Twenty-four 7 month-old male C57BL/6NCrl mice (Charles River, L'Arbresle, France) were used (average body weights: 27.6 g). The animals were kept under a 12/12-hour light/dark cycle (lights on from 07.00 pm to 07.00 am) with free access to food and water. All testing was done between 09.00 am and maximally 06.00 pm.
Both rolipram (Sigma-Aldrich St. Louis, USA; MW 275.34) and roflumilast (Biocrea, Radebeul, Germany; MW 403.21) were dissolved in dimethylsulfoxide (DMSO) and kept at 4° C.; this stock solution was used for further dilutions in 0.5% methylcellulose. Each of rolipram and roflumilast is used in form of its free base. All injected solutions consisted of 0.5% methylcellulose with a fixed DMSO percentages (1.2%) (vehicle).
For the Object Location Task (OLT), doses of 0.01 mg/kg, 0.03 mg/kg and 0.1 mg/kg of Rolipram or Roflumilast or vehicle were administered subcutaneously (s.c.). Based on previous findings, PDE4 inhibitor single administration was performed 3 hours after the first trial as this has an optimum effect on object memory performance. The injection volume was 5 μl/g.
The OLT apparatus consisted of a circular arena, 40 cm in diameter. Half of the 40 cm transparent polyvinyl chloride wall was covered from the outside with white paper. Two objects were placed symmetrically about 10 cm away from the wall on the separation line, between the transparent and covered side of the arena. Four different sets of objects were available: (1) a cone made of brass (maximal diameter 6 cm and total height 3.8 cm), (2) a transparent glass bottle (diameter 2.7 cm, height 8.5 cm) filled with sand and water, (3) a massive metal cube (2.5 cm×5 cm×7.5 cm) with two holes (diameter 1.5 cm), and (4) a massive aluminum cube with a tapering top (4.5 cm×4.5 cm×8.5 cm).
A testing session comprised two trials of 4 minutes. Before each trial, mice were placed in an empty Makrolon cage (incubation cage) for the same amount of time as the trial (4 min). During the first trial (T1), two identical objects were placed symmetrically about 10 cm away from the wall on the separation line between the transparent and covered side of the arena. After the first exploration period of 4 min, the mouse was put back in its home cage. Mice then received treatment at 3 hours post T1. Subsequently, after a predetermined delay interval (24 h), the mouse was placed in the apparatus for the second trial of 4 min (T2). Two identical objects as in T1 were used; one object was placed in the previously used position, whereas the other was placed in a novel position. The novel position of the object could either be a fixed distance towards the front or a fixed distance towards the back of the arena for both objects. The times spent exploring each object during T1 and T2 were recorded manually using a personal computer. All objects and locations were used in a balanced manner to exclude possible object and/or location preferences. To avoid olfactory cues, the objects were thoroughly cleaned with 70% ethanol after each trial. The testing order of conditions was determined randomly.
The measurements reflected the time spent by the mice in exploring each object during T1 and T2. The time spent in exploring the two identical samples in T1 were represented by ‘a1’ and ‘a2’, respectively. The time spent in exploring the sample and the new object in T2 were represented by ‘a’ and ‘b’, respectively. From these exploration times the following variables were calculated: e1, e2, and d2 (Table 1). The d2 index is a relative measure of discrimination corrected for exploratory activity. […]

Row | Structure (SMILES) | e1, total exploration time during T1 (0.01 mg/kg s.c.) | e2, total exploration time during T2 (0.01 mg/kg s.c.) | e1, total exploration time during T1 (0.03 mg/kg s.c.) | e2, total exploration time during T2 (0.03 mg/kg s.c.) | e1, total exploration time during T1 (0.1 mg/kg s.c.) | e2, total exploration time during T2 (0.1 mg/kg s.c.)
1 | O=C(Nc1c(Cl)cncc1Cl)c1ccc(OC(F)F)c(OCC2CC2)c1 [roflumilast, N-(3,5-dichloropyridin-4-yl)-3-cyclopropylmethoxy-4-difluoromethoxybenzamide] | 15.95 (1.11) s | 14.13 (1.22) s | 15.62 (1.37) s | 16.13 (1.18) s | 17.51 (1.36) s | 13.73 (1.11) s
2 | COc1ccc(C2CNC(=O)C2)cc1OC1CCCC1 (stereo not drawn) [rolipram] | 15.58 (0.95) s | 12.99 (0.84) s | 15.45 (1.35) s | 13.56 (0.95) s | 15.82 (1.03) s | 12.29 (0.08) s
